{"source": "PubChem BioAssay AID1259308 | NCATS – 2017", "test": "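Candidate targets for better recombinant protein yield in mammalian cells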 (primary screen)", "system": "human HEK293 embryonic kidney cells stably expressing firefly luciferase (HEK-CMV-Luc2-Hygro)", "reagent": "single siRNA against human genes, 0.8 pmol siRNA per well", "duration": "72 h", "detection": "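Reporter luminescence and viable-cell signal on separate replicate plates, given as percent of non-targeting control and median/MAD z-scores, plus per-cell luciferase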", "direction": "total luciferase, z-score: higher = more reporter protein produced", "active means": "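Active when the median/MAD z-score for overall luciferase is greater than 3; a gene was taken forward for validation with new siRNAs if at least two of its three siRNAs passed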", "meaning of the calls": "active = raised luciferase; inactive = no rise", "note": "In all, the deposit lists about 59,000 reagents; this is an unselected part. About 1,510 of all reagents (2.6%) count as active. 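Calls use total luciferase alone and ignore viability, so some active siRNAs may act by altering cell number.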 Reagents against one gene are numbered here. Further read-outs or replicates are left out here."}
{"gene knocked down": "RPL12P8 (ribosomal protein L12 pseudogene 8)", "siRNA no.": 1, "total luciferase, z-score": 1.32, "call": "inactive"}
{"gene knocked down": "RPL12P8 (ribosomal protein L12 pseudogene 8)", "siRNA no.": 2, "total luciferase, z-score": -0.00781, "call": "inactive"}
{"gene knocked down": "RPL12P8 (ribosomal protein L12 pseudogene 8)", "siRNA no.": 3, "total luciferase, z-score": 1.83, "call": "inactive"}
{"gene knocked down": "SLC29A2", "siRNA no.": 1, "total luciferase, z-score": 0.148, "call": "inactive"}
{"gene knocked down": "SLC29A2", "siRNA no.": 2, "total luciferase, z-score": 0.603, "call": "inactive"}
{"gene knocked down": "SLC29A2", "siRNA no.": 3, "total luciferase, z-score": 1.69, "call": "inactive"}
{"gene knocked down": "GTF2IRD2 (GTF2I repeat domain containing 2)", "siRNA no.": 1, "total luciferase, z-score": 0.331, "call": "inactive"}
{"gene knocked down": "GTF2IRD2 (GTF2I repeat domain containing 2)", "siRNA no.": 2, "total luciferase, z-score": -0.906, "call": "inactive"}
{"gene knocked down": "GTF2IRD2 (GTF2I repeat domain containing 2)", "siRNA no.": 3, "total luciferase, z-score": 3.14, "call": "active"}
{"gene knocked down": "GDF6 (growth differentiation factor 6)", "siRNA no.": 1, "total luciferase, z-score": -0.823, "call": "inactive"}
{"gene knocked down": "GDF6 (growth differentiation factor 6)", "siRNA no.": 2, "total luciferase, z-score": 1.2, "call": "inactive"}
{"gene knocked down": "GDF6 (growth differentiation factor 6)", "siRNA no.": 3, "total luciferase, z-score": 0.0469, "call": "inactive"}
{"gene knocked down": "SUGT1 (SGT1 assembly cochaperone of MIS12 kinetochore complex)", "siRNA no.": 1, "total luciferase, z-score": -0.485, "call": "inactive"}
{"gene knocked down": "SUGT1 (SGT1 assembly cochaperone of MIS12 kinetochore complex)", "siRNA no.": 2, "total luciferase, z-score": -0.472, "call": "inactive"}
{"gene knocked down": "SUGT1 (SGT1 assembly cochaperone of MIS12 kinetochore complex)", "siRNA no.": 3, "total luciferase, z-score": -0.0733, "call": "inactive"}
{"gene knocked down": "HES2 (hes family bHLH transcription factor 2)", "siRNA no.": 1, "total luciferase, z-score": -3.47, "call": "inactive"}
{"gene knocked down": "HES2 (hes family bHLH transcription factor 2)", "siRNA no.": 2, "total luciferase, z-score": 0.565, "call": "inactive"}
{"gene knocked down": "HES2 (hes family bHLH transcription factor 2)", "siRNA no.": 3, "total luciferase, z-score": -0.0573, "call": "inactive"}
{"gene knocked down": "BMPR1B (bone morphogenetic protein receptor type 1B)", "siRNA no.": 1, "total luciferase, z-score": -0.94, "call": "inactive"}
{"gene knocked down": "BMPR1B (bone morphogenetic protein receptor type 1B)", "siRNA no.": 2, "total luciferase, z-score": 0.326, "call": "inactive"}
{"gene knocked down": "BMPR1B (bone morphogenetic protein receptor type 1B)", "siRNA no.": 3, "total luciferase, z-score": 1.16, "call": "inactive"}
{"gene knocked down": "TMEM178A (transmembrane protein 178A)", "siRNA no.": 1, "total luciferase, z-score": 0.0158, "call": "inactive"}
{"gene knocked down": "TMEM178A (transmembrane protein 178A)", "siRNA no.": 2, "total luciferase, z-score": 0.69, "call": "inactive"}
{"gene knocked down": "TMEM178A (transmembrane protein 178A)", "siRNA no.": 3, "total luciferase, z-score": -0.544, "call": "inactive"}
{"gene knocked down": "OLIG1 (oligodendrocyte transcription factor 1)", "siRNA no.": 1, "total luciferase, z-score": 0.402, "call": "inactive"}
{"gene knocked down": "OLIG1 (oligodendrocyte transcription factor 1)", "siRNA no.": 2, "total luciferase, z-score": -1.45, "call": "inactive"}
{"gene knocked down": "OLIG1 (oligodendrocyte transcription factor 1)", "siRNA no.": 3, "total luciferase, z-score": 1.03, "call": "inactive"}
{"gene knocked down": "C2orf76 (chromosome 2 open reading frame 76)", "siRNA no.": 1, "total luciferase, z-score": -0.867, "call": "inactive"}
{"gene knocked down": "C2orf76 (chromosome 2 open reading frame 76)", "siRNA no.": 2, "total luciferase, z-score": 3.77, "call": "active"}
{"gene knocked down": "C2orf76 (chromosome 2 open reading frame 76)", "siRNA no.": 3, "total luciferase, z-score": -0.803, "call": "inactive"}
{"gene knocked down": "FAM220A (family with sequence similarity 220 member A)", "siRNA no.": 1, "total luciferase, z-score": -0.308, "call": "inactive"}
{"gene knocked down": "FAM220A (family with sequence similarity 220 member A)", "siRNA no.": 2, "total luciferase, z-score": -0.674, "call": "inactive"}
{"gene knocked down": "FAM220A (family with sequence similarity 220 member A)", "siRNA no.": 3, "total luciferase, z-score": 0.429, "call": "inactive"}
{"gene knocked down": "NAGK (N-acetylglucosamine kinase)", "siRNA no.": 1, "total luciferase, z-score": -0.78, "call": "inactive"}
{"gene knocked down": "NAGK (N-acetylglucosamine kinase)", "siRNA no.": 2, "total luciferase, z-score": 0.313, "call": "inactive"}
{"gene knocked down": "NAGK (N-acetylglucosamine kinase)", "siRNA no.": 3, "total luciferase, z-score": -0.671, "call": "inactive"}
{"gene knocked down": "SPA17 (sperm autoantigenic protein 17)", "siRNA no.": 1, "total luciferase, z-score": -0.997, "call": "inactive"}
{"gene knocked down": "SPA17 (sperm autoantigenic protein 17)", "siRNA no.": 2, "total luciferase, z-score": 2.9, "call": "inactive"}
{"gene knocked down": "SPA17 (sperm autoantigenic protein 17)", "siRNA no.": 3, "total luciferase, z-score": -0.412, "call": "inactive"}
{"gene knocked down": "ZNF683 (zinc finger protein 683)", "siRNA no.": 1, "total luciferase, z-score": 1.69, "call": "inactive"}
{"gene knocked down": "ZNF683 (zinc finger protein 683)", "siRNA no.": 2, "total luciferase, z-score": -0.474, "call": "inactive"}
{"gene knocked down": "ZNF683 (zinc finger protein 683)", "siRNA no.": 3, "total luciferase, z-score": 0.857, "call": "inactive"}

6 entries already listed, sorted by “total luciferase, z-score”, lowest first.
{"gene knocked down": "GDF6 (growth differentiation factor 6)", "siRNA no.": 1, "total luciferase, z-score": -0.823, "call": "inactive"}
{"gene knocked down": "SUGT1 (SGT1 assembly cochaperone of MIS12 kinetochore complex)", "siRNA no.": 1, "total luciferase, z-score": -0.485, "call": "inactive"}
{"gene knocked down": "SUGT1 (SGT1 assembly cochaperone of MIS12 kinetochore complex)", "siRNA no.": 2, "total luciferase, z-score": -0.472, "call": "inactive"}
{"gene knocked down": "SUGT1 (SGT1 assembly cochaperone of MIS12 kinetochore complex)", "siRNA no.": 3, "total luciferase, z-score": -0.0733, "call": "inactive"}
{"gene knocked down": "GDF6 (growth differentiation factor 6)", "siRNA no.": 3, "total luciferase, z-score": 0.0469, "call": "inactive"}
{"gene knocked down": "GDF6 (growth differentiation factor 6)", "siRNA no.": 2, "total luciferase, z-score": 1.2, "call": "inactive"}
